# Results of single-concentration screens

Sequences of proteins named here, by UniProt entry; tags and fusion partners are left off. Residues count along the entry.
UniProt P9WNZ1, whole entry: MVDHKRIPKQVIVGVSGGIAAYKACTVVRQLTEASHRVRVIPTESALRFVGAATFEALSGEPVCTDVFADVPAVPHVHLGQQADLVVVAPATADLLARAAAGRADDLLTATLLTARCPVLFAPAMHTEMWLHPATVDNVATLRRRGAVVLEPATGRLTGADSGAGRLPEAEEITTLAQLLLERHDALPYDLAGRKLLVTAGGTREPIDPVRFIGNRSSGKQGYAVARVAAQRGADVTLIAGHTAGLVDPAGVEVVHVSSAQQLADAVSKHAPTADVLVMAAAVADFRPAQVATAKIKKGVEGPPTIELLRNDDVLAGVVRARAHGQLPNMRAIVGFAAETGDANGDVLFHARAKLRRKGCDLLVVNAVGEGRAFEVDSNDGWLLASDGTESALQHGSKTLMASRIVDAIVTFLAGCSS
UniProt Q4DA54, 1-478: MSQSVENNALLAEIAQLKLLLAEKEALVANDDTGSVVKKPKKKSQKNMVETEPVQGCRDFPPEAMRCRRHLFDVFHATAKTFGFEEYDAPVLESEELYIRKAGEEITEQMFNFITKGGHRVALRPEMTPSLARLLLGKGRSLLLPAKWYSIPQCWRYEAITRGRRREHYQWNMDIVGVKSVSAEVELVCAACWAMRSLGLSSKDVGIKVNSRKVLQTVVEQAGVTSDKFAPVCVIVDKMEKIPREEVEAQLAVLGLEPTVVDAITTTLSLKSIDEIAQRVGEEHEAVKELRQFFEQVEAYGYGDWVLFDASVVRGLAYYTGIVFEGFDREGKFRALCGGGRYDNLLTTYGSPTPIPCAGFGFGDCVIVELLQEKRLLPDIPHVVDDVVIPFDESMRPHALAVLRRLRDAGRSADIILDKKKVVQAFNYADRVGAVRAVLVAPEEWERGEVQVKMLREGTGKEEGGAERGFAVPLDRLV

Measurements from “University of Dundee, Small-Polar-MMV Screening Library” (2021), ChEMBL document CHEMBL3988442.

CoaBC: 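Enzyme assay of CoaBC with a phosphate dye (Biomol Green) read at 650 nm. Target: Coenzyme A biosynthesis protein CoaBC, Mycobacterium tuberculosis (UniProt P9WNZ1). Tested at 30 µM. Higher reads as stronger inhibition, judged from the few compounds that gave an IC50. Most strong results did not repeat in a second test. About 67,000 compounds were tested under these conditions; 0.06% (about 40) showed 50% or more at least once.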
TcHisRS: 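Histidine-tRNA ligase, Trypanosoma cruzi CL Brener (UniProt Q4DA54). Enzyme assay of histidyl-tRNA synthetase; the read-out is not stated. Tested at 30 µM. Direction is inferred from retests: higher values go with stronger inhibition. About 69,000 compounds were tested under these conditions; 0.045% (about 31) showed 50% or more at least once.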

The filed quantity is “Percent Effect” (%).
How 0% and 100% were set is not recorded. Most values in the screen are low, and negative values occur.
The compounds are a random part of those screened.
A dash means the value is not listed here; it may have been measured.

CCCn1nccc1C(=O)N1CCN(C2CCc3ccccc3C2)CC1 (configuration not stated) gave CoaBC: -4.673%; TcHisRS: 5.435%. Result for O=C1NC2(CCN(C(=O)c3ccc(Cl)cn3)CC2)CC1c1ccccc1 (configuration not stated) was CoaBC: 5.72%; TcHisRS: -3.175%. For CC[C@H](C)Nc1nccc(-c2cnc3sc(C)cn3c2=O)n1 the result was CoaBC: 2.289%; TcHisRS: 2.26%. CCCS(=O)(=O)NC1CCN(c2nnc(C)c(C)c2C#N)CC1 gave CoaBC: 8.423%; TcHisRS: 4.202%.

CCc1nc(-c2noc3ccc(C(=O)N(C)CCOC)cc23)co1 gave CoaBC: 1.208%; TcHisRS: 5.806%. O=C(Nc1ccc(-c2cscn2)cc1)C1CCCN(Cc2ccon2)C1 (configuration not stated) gave CoaBC: 0.4577%; TcHisRS: 8.287%. With CN(Cc1cnccn1)C(=O)Nc1cc(F)cc(N2CCCC2)c1 the screen gave CoaBC: 16.02%; TcHisRS: 9.392%. Result for C1CC(CN2C[C@@H]3C[C@@H](c4nnc(C5CC5)o4)O[C@@H]3C2)CCO1 was CoaBC: -38.1%; TcHisRS: 8.571%.

Result for c1cncc(N2CCOCC3(CCCN(c4nncs4)C3)C2)c1 (configuration not stated) was CoaBC: 4.505%; TcHisRS: 2.732%. Cn1ccc(CN2CCCC(CNS(C)(=O)=O)C2)cc1=O (configuration not stated) gave CoaBC: 8.765%; TcHisRS: -5.263%. For COc1c(C(=O)NC(C)Cc2ccccc2Cl)c(C)nn1C (configuration not stated) the result was CoaBC: 3.899%; TcHisRS: 3.571%. N#CC1(C(=O)NCCCNc2ccc(C(F)(F)F)cn2)CCCC1 gave CoaBC: -4.521%; TcHisRS: 2.662%.

O=C(CCc1ccco1)N1CCC(Oc2ccccc2)(C(=O)O)CC1 gave CoaBC: 0.1196%; TcHisRS: 4.721%. Result for CC(NC(=O)Nc1ccc(OC2CCCC2)cc1)c1nc[nH]n1 (configuration not stated) was CoaBC: -10.73%; TcHisRS: 1.163%. With c1csc(CN2CCOCC3(CCN(C4CCOCC4)C3)C2)n1 (configuration not stated) the screen gave CoaBC: 3.475%; TcHisRS: 4.918%. CN(C)C[C@]12COC[C@H]1CN(C(=O)Cc1ccc3c(c1)OCO3)C2 read CoaBC: 2.101%; TcHisRS: -4.132%.

Result for O=C(c1cnccn1)N1CCOCC2(CCN(C3CCOCC3)C2)C1 (configuration not stated) was CoaBC: 3.903%; TcHisRS: 0.5464%. With CCCn1nc2c(cc1=O)CN(Cc1c(C)noc1C)CC2 the screen gave CoaBC: -7.46%; TcHisRS: 4.348%. Result for CCCN(Cc1nnnn1C1CC1)CC1COc2ccccc2O1 (configuration not stated) was CoaBC: 1.635%; TcHisRS: 0.8929%. For CC(C)Cc1cc(CNC(=O)c2cccc3c2NCCC3)no1 the result was CoaBC: 9.489%; TcHisRS: 7.879%.

NC(=O)c1c(SCCN2CCCCC2)sc2c(O)cc(=O)[nH]c12 gave CoaBC: 2.906%; TcHisRS: 8%. Cc1nn(C)c2nc(NC3CCNCC3)sc12 gave CoaBC: 1.597%; TcHisRS: 11.9%. Result for Cc1ccc(O)c(CNc2cccc(CN3CCN(C)CC3)c2)n1 was CoaBC: -43.69%; TcHisRS: 6.077%. Result for Cc1ccc(N2CCCC(NC(=O)CCc3ccccn3)C2=O)cc1 (configuration not stated) was CoaBC: 9.611%; TcHisRS: 9.392%.

For Cn1c(=O)oc2ccc(S(=O)(=O)N3CCC(c4ccccc4)C3)cc21 (configuration not stated) the result was CoaBC: -4.046%; TcHisRS: -9.649%. For O=C1NCCCCC1NCc1csc(-c2ccsc2)n1 (configuration not stated) the result was TcHisRS: 9.211%. CCN1CCN(C(=O)C2CC(=O)N(c3cnn(C(C)C)c3)C2)CC1 (configuration not stated) read CoaBC: 2.013%; TcHisRS: 2.062%. CC(C)CC(NS(C)(=O)=O)C(=O)N(C)Cc1nnc2n1CCC2 (configuration not stated) gave TcHisRS: 8.28%.

CN(CCCOc1ccccc1Cl)C(=O)CN1C(=O)CCNC1=O read CoaBC: 3.648%; TcHisRS: 7.143%. With CCCN(CCc1ccccc1)C(=O)c1ccccc1NCC(=O)O the screen gave CoaBC: 7.767%; TcHisRS: 4.972%. CSCCNC(=O)c1cc(Br)cn1C(C)C gave CoaBC: -0.641%; TcHisRS: 4.926%. CC(=O)Nc1ccc(C(=O)N(C)Cc2cccc(F)c2)s1 read CoaBC: 2.945%; TcHisRS: 0.6135%.

With Cc1cccn2c(=O)cc(OC(=O)c3ccccc3Cl)nc12 the screen gave CoaBC: 3.291%; TcHisRS: -7.317%. With CC(C)C(=O)NCCNC(=O)CCOc1cccc(F)c1 the screen gave CoaBC: 6.65%; TcHisRS: 4.706%. CN(Cc1ncc[nH]1)CC(c1cccs1)N1CCOCC1 (configuration not stated) gave CoaBC: 2.024%; TcHisRS: -1.916%. With CC(C)OCCN1CCC(N2CCN(C)C2=O)CC1 the screen gave CoaBC: 1.446%; TcHisRS: 0%.

COc1c(CNCc2ccc(CN(C)C)cc2)c(C)nn1C gave CoaBC: 8.877%; TcHisRS: 4.135%. CCCc1nnsc1C(=O)NCC(O)c1ccc(SC)cc1 (configuration not stated) read CoaBC: 6.846%; TcHisRS: 1.554%. With CCc1ccc2nc(-c3cnn(C)c3)cc(C(=O)N3CCCC3)c2c1 the screen gave CoaBC: -2.45%; TcHisRS: 3.478%. COc1ccccc1C(CNC(=O)NCc1cc[nH]n1)N1CCCC1 (configuration not stated) gave CoaBC: -33.48%; TcHisRS: 1.163%.

Result for O=C(c1ncn2c1CNS(=O)(=O)c1ccccc1-2)N1CCCCCC1 was CoaBC: -3.333%; TcHisRS: 8.021%. Result for O=S(=O)(Nc1cnc(N2CCOCC2)nc1)c1ccc(C(F)(F)F)cc1 was CoaBC: -4.141%; TcHisRS: 4.39%. With Cc1ncc(CNCC2CCCN2c2cccnn2)s1 (configuration not stated) the screen gave CoaBC: 11.75%; TcHisRS: 8.647%.

4 of the entries, repeated:

| Compound | CoaBC | TcHisRS |
|---|---|---|
| `CCN1CCN(C(=O)C2CC(=O)N(c3cnn(C(C)C)c3)C2)CC1` (configuration not stated) | 2.013% | 2.062% |
| `O=C(CCc1ccco1)N1CCC(Oc2ccccc2)(C(=O)O)CC1` | 0.1196% | 4.721% |
| `CCCn1nccc1C(=O)N1CCN(C2CCc3ccccc3C2)CC1` (configuration not stated) | -4.673% | 5.435% |
| `O=C1NCCCCC1NCc1csc(-c2ccsc2)n1` (configuration not stated) | - | 9.211% |